Source: article PMC5673238
No constants are given. Whether binding was seen depends on the method and setting. In cells and extracts the contact can be indirect. Some binding calls cover weakened binding; strength is not graded here. For some of these results: Tags and fused reporters may be left off the sequences shown. Each block holds one molecule with its values, some of them ahead of it.

Protein sequences, listed by entry. Tags and fused reporters are not part of them. Lines headed by an entry give the natural chain unless they say otherwise; changes in a name come on top. Chains listed by the source or under a name are the forms on record and can include a tag or linker. Residues count along the entry.
UniProt Q13153, residues 70-117: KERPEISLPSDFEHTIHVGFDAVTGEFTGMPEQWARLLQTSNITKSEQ
UniProt P60953: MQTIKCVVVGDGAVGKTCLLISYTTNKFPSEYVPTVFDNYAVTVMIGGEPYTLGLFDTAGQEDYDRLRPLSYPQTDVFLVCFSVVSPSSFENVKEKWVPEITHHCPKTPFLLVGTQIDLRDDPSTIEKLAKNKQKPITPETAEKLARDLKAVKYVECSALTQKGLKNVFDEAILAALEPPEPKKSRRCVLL
VSVG-Cdc42 CA (QL) (P60953, form named): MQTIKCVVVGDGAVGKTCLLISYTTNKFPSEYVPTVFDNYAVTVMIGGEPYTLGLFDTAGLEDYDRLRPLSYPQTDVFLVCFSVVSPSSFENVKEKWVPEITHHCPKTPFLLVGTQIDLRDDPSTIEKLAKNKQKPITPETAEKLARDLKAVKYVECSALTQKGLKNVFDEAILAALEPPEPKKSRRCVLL
VSVG-Cdc42 DN (N17) (P60953, form named): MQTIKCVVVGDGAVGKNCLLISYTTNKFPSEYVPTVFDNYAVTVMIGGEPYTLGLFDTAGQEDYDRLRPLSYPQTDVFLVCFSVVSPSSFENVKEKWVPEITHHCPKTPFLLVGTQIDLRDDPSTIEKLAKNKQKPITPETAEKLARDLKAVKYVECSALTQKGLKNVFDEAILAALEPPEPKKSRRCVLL

Experiments:
[1] = molecular target: GST-Pak1 binding domain (Pak1 70-117) (UniProt Q13153); test: pull-down; GST-PKB (GST-PBD) immobilised on glutathione agarose beads, incubated with HEK-293T lysate expressing vsvg-Cdc42 CA or DN; only the target purified
GST-Cdc42 (wild type) [2] = molecular target: GST-Cdc42 (wild type) (UniProt P60953); test: pull-down; purified GST-Cdc42 incubated with GDP (inactive form), immobilised, incubated with lysate of HEK-293T cells overexpressing V5-CB isoforms; WB for V5; only the target purified
GST-Cdc42 (wild type) [3] = molecular target: GST-Cdc42 (wild type) (UniProt P60953); test: pull-down; purified GST-Cdc42 incubated with γsGTP (active form), immobilised, incubated with lysate of HEK-293T cells overexpressing V5-CB isoforms; WB for V5; only the target purified

binding [1]: binds
Molecule: VSVG-Cdc42 CA (QL) (from UniProt P60953 1-191)

binding [1]: no binding
Molecule: VSVG-Cdc42 DN (N17) (from UniProt P60953 1-191)

binding (GST-Cdc42 (wild type) [2]): binds
binding (GST-Cdc42 (wild type) [3]): binds
B1: V5-CB1_(SH3+) (collybistin splice isoform CB1 with SH3 domain) (protein, UniProt Q9QX73 1-493)
chain: MQWIRGGSGMLITGDSIVSAEAVWDHVTMANRGVAFKAGDVIKVLDASNKDWWWGQIDDEEGWFPASFVRLWVNQEDGVEEGPSDVQNGHLDPNSDCLCLGRPLQNRDQMRANVINEIMSTERHYIKHLKDICEGYLKQCRKRRDMFSDEQLKVIFGNIEDIYRFQMGFVRDLEKQYNNDDPHLSEIGPCFLEHQDGFWIYSEYCNNHLDACMELSKLMKDSRYQHFFEACRLLQQMIDIAIDGFLLTPVQKICKYPLQLAELLKYTAQDHSDYRYVAAALAVMRNVTQQINERKRRLENIDKIAQWQASVLDWEGDDILDRSSELIYTGEMAWIYQPYGRNQQRVFFLFDHQMVLCKKDLIRRDILYYKGRIDMDKYEVIDIEDGRDDDFNVSMKNAFKLHNKETEEVHLFFAKKLEEKIRWLRAFREERKMVQEDEKIGFEISENQKRQAAMTVRKASKQKGRVGEEENQSLELKRACEVLQRLWSPGKKS
